According to patent US12570608B2, “Compound derived from quinoline, use of a compound, composition and method for the treatment or prophylaxis of a condition caused by a blood parasite” (FUNDÃÇAO OSWALDO CRUZ, priority 2019, dated 2026):

System: β-hematin formation
Test: Inhibition of β-hematin formation (lipid-catalysed heme crystallization)
Assay type: biochemical
Conditions: fold higher than observed for CQ

C#CCNc1ccnc2cc(Cl)ccc12 [PCQ]
β-hematin inhibitory concentration relative to CQ: 4 fold
